Reference: publication PMC12608094, “STN1 Shields CTC1 From TRIM32‐Mediated Ubiquitination to Prevent Cellular Aging” (Aging Cell, 2025)
No constants are given. Whether binding was seen depends on the method and setting. Binding seen in cells or lysates may run through a third protein. Some results given as binding are weak or reduced against the parent protein; the word gives no strength.

The chains behind the UniProt entries cited, without tags or fusion partners.
UniProt Q96AP0: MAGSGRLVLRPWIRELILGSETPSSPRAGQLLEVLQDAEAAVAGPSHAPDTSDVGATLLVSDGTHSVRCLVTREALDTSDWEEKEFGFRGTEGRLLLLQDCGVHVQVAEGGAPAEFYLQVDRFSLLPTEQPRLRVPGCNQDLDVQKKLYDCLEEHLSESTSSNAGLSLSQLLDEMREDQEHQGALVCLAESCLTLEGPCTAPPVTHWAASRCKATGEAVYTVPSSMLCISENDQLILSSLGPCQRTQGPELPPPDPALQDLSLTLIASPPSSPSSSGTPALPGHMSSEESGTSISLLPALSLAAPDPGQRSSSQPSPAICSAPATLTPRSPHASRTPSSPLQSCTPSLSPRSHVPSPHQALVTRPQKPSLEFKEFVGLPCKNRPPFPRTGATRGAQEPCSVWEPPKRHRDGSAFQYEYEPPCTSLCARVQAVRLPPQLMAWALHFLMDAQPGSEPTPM

Target: T1, YFPc-CTC1 (human) (UniProt Q2NKJ3)
T1 sequence: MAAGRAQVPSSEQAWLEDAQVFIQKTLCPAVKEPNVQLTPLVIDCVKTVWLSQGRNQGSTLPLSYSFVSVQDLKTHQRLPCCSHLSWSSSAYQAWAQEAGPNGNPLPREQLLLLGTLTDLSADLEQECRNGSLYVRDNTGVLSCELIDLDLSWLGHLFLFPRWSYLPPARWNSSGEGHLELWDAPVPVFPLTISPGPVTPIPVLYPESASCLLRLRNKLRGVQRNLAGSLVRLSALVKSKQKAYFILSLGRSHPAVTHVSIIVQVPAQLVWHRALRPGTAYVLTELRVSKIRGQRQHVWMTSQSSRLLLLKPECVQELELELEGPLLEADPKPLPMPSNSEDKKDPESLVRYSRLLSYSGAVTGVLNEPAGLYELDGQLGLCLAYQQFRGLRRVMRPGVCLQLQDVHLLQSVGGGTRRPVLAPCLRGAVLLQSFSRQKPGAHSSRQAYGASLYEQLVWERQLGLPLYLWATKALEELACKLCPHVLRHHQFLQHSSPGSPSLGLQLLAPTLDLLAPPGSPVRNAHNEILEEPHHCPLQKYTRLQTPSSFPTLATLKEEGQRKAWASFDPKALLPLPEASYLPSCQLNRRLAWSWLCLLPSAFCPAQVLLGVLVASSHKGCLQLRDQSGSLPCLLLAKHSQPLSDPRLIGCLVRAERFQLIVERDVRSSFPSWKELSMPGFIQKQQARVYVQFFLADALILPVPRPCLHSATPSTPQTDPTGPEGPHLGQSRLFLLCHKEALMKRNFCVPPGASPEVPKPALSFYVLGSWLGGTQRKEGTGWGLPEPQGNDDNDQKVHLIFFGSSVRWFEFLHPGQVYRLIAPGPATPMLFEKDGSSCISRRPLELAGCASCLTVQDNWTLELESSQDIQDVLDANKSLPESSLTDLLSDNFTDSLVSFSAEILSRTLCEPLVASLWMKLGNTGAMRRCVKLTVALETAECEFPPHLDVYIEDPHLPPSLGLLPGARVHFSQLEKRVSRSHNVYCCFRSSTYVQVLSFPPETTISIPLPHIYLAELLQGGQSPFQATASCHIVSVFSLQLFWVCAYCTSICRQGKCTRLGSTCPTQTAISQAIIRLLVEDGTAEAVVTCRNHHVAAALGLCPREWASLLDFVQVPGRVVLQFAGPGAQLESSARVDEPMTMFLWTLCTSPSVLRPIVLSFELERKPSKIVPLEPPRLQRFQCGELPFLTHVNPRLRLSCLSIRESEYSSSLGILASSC
Assay: split reporter; BiFC with YFPn and YFPc fragments in HEK293T cells; YFP signals read by flow cytometry 48 h after transfection

Question: With YFPn-TPP1 (from UniProt Q96AP0 1-458) as the substance, how does the binding read?
Answer: binds
